The values that follow come from publication PMC6095599.

By UniProt entry, the sequences of proteins in these tests, tags left out. Where a name states a change or a piece, a line headed by the entry shows the natural chain unless it says otherwise.
UniProt P07834: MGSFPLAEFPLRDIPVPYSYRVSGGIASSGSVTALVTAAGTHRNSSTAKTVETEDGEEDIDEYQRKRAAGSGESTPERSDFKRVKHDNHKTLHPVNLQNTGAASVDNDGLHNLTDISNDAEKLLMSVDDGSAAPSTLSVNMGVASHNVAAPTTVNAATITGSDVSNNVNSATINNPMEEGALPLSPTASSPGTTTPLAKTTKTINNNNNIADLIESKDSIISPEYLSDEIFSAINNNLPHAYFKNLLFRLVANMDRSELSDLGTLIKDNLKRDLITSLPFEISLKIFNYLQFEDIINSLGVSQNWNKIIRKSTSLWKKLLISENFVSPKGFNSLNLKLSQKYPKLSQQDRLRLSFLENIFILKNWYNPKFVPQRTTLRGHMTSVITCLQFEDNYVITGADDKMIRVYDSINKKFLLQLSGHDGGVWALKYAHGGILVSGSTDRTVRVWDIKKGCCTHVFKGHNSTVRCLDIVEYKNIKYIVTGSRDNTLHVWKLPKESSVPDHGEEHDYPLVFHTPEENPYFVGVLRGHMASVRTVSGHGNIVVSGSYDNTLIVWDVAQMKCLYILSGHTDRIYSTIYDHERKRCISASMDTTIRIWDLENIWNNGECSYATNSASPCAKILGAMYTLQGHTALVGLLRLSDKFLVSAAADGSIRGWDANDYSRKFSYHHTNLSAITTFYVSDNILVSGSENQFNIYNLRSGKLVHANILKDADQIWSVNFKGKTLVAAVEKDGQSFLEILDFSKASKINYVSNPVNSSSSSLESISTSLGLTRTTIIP

In the assay the target is GST fusion to Cdc4ΔFbox (budding yeast) (UniProt P07834). Put plainly: pull-down; GST fusions affinity purified with glutathione beads from extracts of cdc4ts grr1 yeast cells co-expressing Cln3–13myc; immunoblot with αmyc and αGST.

No constants are given. Whether binding was seen depends on the method and setting. In cells and extracts the contact can be indirect. A result given as binding can be weak or reduced; the word gives no strength. Sequences can lack the tags named with a protein.

B1: Cln3–13myc (protein, UniProt P13365 1-580)
chain: MAILKDTIIRYANARYATASGTSTATAASVSAASCPNLPLLLQKRRAIASAKSKNPNLVKRELQAHHSAISEYNNDQLDHYFRLSHTERPLYNLTNFNSQPQVNPKMRFLIFDFIMYCHTRLNLSTSTLFLTFTILDKYSSRFIIKSYNYQLLSLTALWISSKFWDSKNRMATLKVLQNLCCNQYSIKQFTTMEMHLFKSLDWSICQSATFDSYIDIFLFQSTSPLSPGVVLSAPLEAFIQQKLALLNNAAGTAINKSSSSQGPSLNINEIKLGAIMLCELASFNLELSFKYDRSLIALGAINLIKLSLNYYNSNLWENINLALEENCQDLDIKLSEISNTLLDIAMDQNSFPSSFKSKYLNSNKTSLAKSLLDALQNYCIQLKLEEFYRSQELETMYNTIFAQSFDSDSLTCVYSNATTPKSATVSSAATDYFSDHTHLRRLTKDSISPPFAFTPTSSSSSPSPFNSPYKTSSSMTTPDSASHHSHSGSFSSTQNSFKRSLSIPQNSSIFWPSPLTPTTPSLMSNRKLLQNLSVRSKRLFPVRPMATAHPCSAPTQLKKRSTSSVDCDFNDSSNLKKTR
For the molecule B1, the binding entry is recorded as “binds”.
